In PubChem BioAssay AID493014 (National Center for Advancing Translational Sciences (NCATS), 2011):
Hit rate of the full screen: of about 340,000 compounds, about 170 (0.05%) were called active. This list was built around the results that the source calls inconclusive (neither active nor inactive); the mix of calls is not that of the screen. The call rests on the fitted dose curve; in most records, active means well fitted inhibition curve with a large enough effect in the signal ratio, with a control signal flat (not every such curve was filed as active); inconclusive means small, poorly fitted or top-dose-only effect, or effect the other way, or a change in a side signal; inactive means flat fitted curve, though single readings scatter; the % refers to the signal ratio. A potency beside an inconclusive call is a rough fit, not a confirmed value.

test: qHTS Assay to Find Inhibitors of Chronic Active B-Cell Receptor Signaling; conditions: ABC-DLBCL IkBa-CBG/CBR reporter, luminescence ratio (green luciferase fused to IkBa over red control in TMD8 lymphoma cells), 4 h; activity change, negative = inhibition: at 46.1 µM (top of the series);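 on activity change, negative = inhibition: plate controls were basal doxycycline-induced cells for no effect and cells given 10 µM MG132 for full effect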
In short: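 Concentration-response series (up to 46 uM) were applied to TMD8 dual-reporter cells for 4 h at 37C with doxycycline. Green/red ratio, after filter-overlap correction, defined %Activity; red signal alone was normalised to basal cells and zero luminescence.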
Potency means the concentration at half of the fitted maximal effect.

SMILES	activity change, negative = inhibition	Potency
N#C/C(=C/c1ccc(Br)s1)C(=O)NCCc1c[nH]c2ccccc12	inconclusive: -0.785%	
Fc1ccccc1COc1ccc(Br)cc1CNCc1ccncc1		inconclusive: 32.6 µM [falling, single point]
Cc1cc(C)n(-c2ccc(N3CCOCC3)nn2)n1	inconclusive: 3.07%	
CC(C)C[C@@H](CO)N(Cc1ccccc1)S(=O)(=O)N(Cc1ccccc1)[C@H](CO)CC(C)C		inconclusive: 32.6 µM [rising, partial curve, poor fit]
C=CCNC(=O)COC(=O)c1nc2nccc(C)n2n1	inconclusive: -2.08%	
Cc1ccc2c(c1)N(CC(=O)NC(C)CCc1ccccc1)C(=O)c1cccnc1O2 (centres undefined)	inactive: -12.7%	
O=C(CSc1ccccn1)Nc1cccc2ccccc12	inactive: 12.3%	
Cc1ccc(NC(=O)c2cc(S(=O)(=O)N3CCC4(CC3)OCCO4)ccc2F)cc1	inconclusive: -5.37%	
NC(=O)c1cc(NC(=O)CCNS(=O)(=O)c2cccc(C(F)(F)F)c2)cc(C(N)=O)c1	inactive: 1.03%	
CCCC(=O)Nc1ccc(NC(=O)c2cccc(OC)c2)cn1	inconclusive: -18%	
CC1CCC2C(=O)N(c3cccc(C(=O)Nc4ccc(F)cc4)c3)C(=O)C2C1 (centres undefined)	inconclusive: -2.37%	
CCOc1ccc(OCC)c(NC(=O)C2CCCN(S(=O)(=O)c3cccs3)C2)c1 (centres undefined)	inactive: 4.63%	
O=C(Nc1ccc(S(=O)(=O)N2CCOCC2)cc1)c1ccc([N+](=O)[O-])cc1Cl	inactive: -13.8%	
COC(=O)c1c(C)oc2ccc(OC(=O)N3CCOCC3)cc12	inconclusive: -3.04%	
O=C(/C=C/c1c(Cl)nc2ccccn12)Nc1ccc(F)cc1		inconclusive: 15.8 µM [falling, partial curve]
Cc1cc(S(=O)(=O)NC2CCCCC2)ccc1OCC(=O)N1CCOCC1	inactive: 18.5%	
CCOC(=O)c1c(-c2cccc(C)c2)csc1NC(=O)c1c(-c2ccccc2)noc1C	inconclusive: 23.3%	
NC(=S)NC1CC2CC1C1C=CCC21 (centres undefined)	inconclusive: -1.92%	
Cc1ccc2nc(-c3ccccc3)cc(C(=O)NNC(=O)c3csc(N4CCOCC4)n3)c2c1	inconclusive: -15.3%	
CC(C)(C)c1ccc(OCC(=O)NN2Cc3ccccc3C2=N)cc1	inconclusive: -0.503%	
CN1CCN(NC(=O)c2cccc(C(F)(F)F)c2)CC1	inactive: -3.35%	
COc1cc(CN(CCc2c(C)[nH]c3ccc(C)cc23)C(=S)NC(C)(C)C)cc(OC)c1OC		inconclusive: 18.4 µM [falling, partial curve, poor fit]
COC(=O)C1=C(N)OC2=C(C(=O)CCC2)C1c1ccc2c(c1)OCO2 (centres undefined)	inactive: -5.46%	
COc1ccc(-c2ccc(SC)nn2)cc1		inconclusive: 17.8 µM [falling, single point]
CCOC(=O)c1c(NC(=O)CN2CCCCC2)sc2c1CCCC2O (centres undefined)		inconclusive: 5.8 µM [rising, full curve]
OCCCCNCc1ccc(OCc2ccccc2)cc1	inactive: -4.3%	
Cc1ccccc1C(=O)Oc1cc(N)n(S(C)(=O)=O)n1	inconclusive: -9.38%	

SMILES	activity change, negative = inhibition	Potency
COc1ccc(Nc2nnc(C)c3ccccc23)cc1C(N)=O		inconclusive: 17.8 µM [falling, single point]
COc1ccccc1NC(=O)CSc1nnc(COc2ccc(Cl)cc2)n1Cc1ccco1		inconclusive: 35.5 µM [falling, single point]
CCN(C(=O)c1cccs1)c1nc(-c2ccc(OC)cc2)cs1	inconclusive: 4.76%	
CCCCOc1ccc(-c2c(C#N)c(N)nc(SCC(N)=O)c2C#N)cc1	inconclusive: -17.6%	
CSc1ccc(-c2c(C#N)c(N)nc3c2CCCC3)cc1	inconclusive: 3.4%	
CCN(CC)c1nc(Nc2ccc(Cl)cc2)nc(OCC#N)n1	inconclusive: 3.06%	
CCOc1ccccc1C(=O)NCc1ccc2c(c1)OCO2	inactive: -17.4%	
COc1ccc(C(=O)Oc2c(C)occc2=O)cc1OC	inconclusive: -1.73%	
COc1ccc(C2NN=C(c3ccc(C)cc3)S2)cc1 (centres undefined)	inactive: -0.378%	
O=C(NCc1ccc2c(c1)OCO2)C12CN(Cc3ccccc3)CC1C(c1cccc([N+](=O)[O-])c1)=NO2 (centres undefined)	inconclusive: 13.1%	
COc1ccccc1NC(=O)CSc1nnc(Cn2nnc(-c3ccccc3)n2)n1-c1ccccc1	inconclusive: -20.3%	
COc1ccc(NC(=O)CSc2nnc(C)c3ccccc23)cc1		inconclusive: 28.2 µM [falling, single point]
CCOc1ccc2nc(SCC(=O)NCc3ccc4c(c3)OCO4)[nH]c2c1		inconclusive: 29.1 µM [falling, partial curve, poor fit]
CC(C)OC(=O)/C(=C/c1ccco1)c1ccccc1	inactive: 12.8%	
CN(C)c1cccc(C(=O)OCc2cc(=O)oc3cc(O)ccc23)c1	inactive: -22.2%	
Cc1ccc2c(c1)[C@H]1[C@H](CO2)[C@H](c2ccccc2)[C@]2(C)C(=O)Nc3cc(F)ccc3C(=O)N12	inconclusive: 1.58%	
CN(C)c1ccc(/C=C(\Cl)c2nc3ccccc3s2)cc1		inconclusive: 18.4 µM [falling, single point]
CCOc1ccc(-c2cc(CCCC(=O)NCCCOC)no2)cc1		inconclusive: 17.8 µM [falling, partial curve, poor fit]
COCCn1c(SCC(=O)Nc2ccccc2OC)nc2c(oc3ccccc32)c1=O	inactive: -10.8%	
CCC(=O)c1cn(CC(=O)Nc2c(C)cccc2C)c2ccccc12	inactive: -1.73%	
Cc1cscn1	inactive: -1.79%	
O=C(C[n+]1ccccc1)N/N=C/c1cc(Br)cc(Br)c1O	inactive: -0.491%	
CCCCCCCNC(=O)C1(CC2CC(c3cccc(Br)c3)=NO2)CCN(C(=O)c2cc(OCC)c(OCC)c(OCC)c2)CC1 (centres undefined)	inconclusive: 0.224%	
CCC(C(=O)N1CCOCC1)n1nc(C)n2c(cc3cc(C)ccc32)c1=O (centres undefined)	inconclusive: 6.87%	
CC(=O)c1ccc(N2Cc3ccccc3/C2=N\C(=O)Nc2ccc(Cl)cc2)cc1	inconclusive: 8.44%	
COc1ccc(NC(=O)c2ccc(CNS(=O)(=O)c3cccc(OC)c3)cc2)cc1	inconclusive: 20.6%	
C/C(=N\NC(=O)c1ccccc1O)c1cccs1		inconclusive: 5.62 µM [rising, partial curve]

Entries of single compounds from above:
`CCOc1ccc(-c2cc(CCCC(=O)NCCCOC)no2)cc1` in the list: Potency: inconclusive: 17.8 µM [falling, partial curve, poor fit]
`CCCCOc1ccc(-c2c(C#N)c(N)nc(SCC(N)=O)c2C#N)cc1` in the list: activity change, negative = inhibition: inconclusive: -17.6%
`CCC(C(=O)N1CCOCC1)n1nc(C)n2c(cc3cc(C)ccc32)c1=O` (centres undefined) in the list: activity change, negative = inhibition: inconclusive: 6.87%
`COc1ccc(NC(=O)c2ccc(CNS(=O)(=O)c3cccc(OC)c3)cc2)cc1` in the list: activity change, negative = inhibition: inconclusive: 20.6%

Later entries:

SMILES	activity change, negative = inhibition	Potency
CCOC(=O)C1(Cc2cccc(OC)c2)CCCN(C(=O)CCN2CCCO2)C1 (centres undefined)	inactive: 1.56%	
CN(C)C1=C(Cl)C(=O)N(c2ccc(Cl)c(Cl)c2)C1=O		inconclusive: 15.8 µM [falling, partial curve, poor fit]
COc1ccc(N(C)C(=O)c2cc3c(s2)-c2ccccc2S(=O)(=O)C3)cc1	inconclusive: -10.3%	
Cc1cc([N+](=O)[O-])ccc1N=Nc1c(N)[nH]n(-c2ccccc2)c1=O	inconclusive: 3.8%	
COc1cccc(NC(=O)c2cc3ccccc3o/c2=N\O)c1		inconclusive: 12.6 µM [falling, partial curve]
Cc1[nH]cnc1CSCc1ccc(Cl)cc1	inactive: -0.576%	
Clc1ccc2[nH]c3c(N4CCC5(CC4)OCCO5)ncnc3c2c1	inactive: -0.209%	
CCN(C(=O)c1cc2c(=O)oc3ccccc3c2s1)c1ccccc1F		inconclusive: 0.316 µM [rising, full curve, poor fit]
CCc1cc(=O)oc2cc(C)cc(OCC(=O)NCCc3c[nH]c4ccccc34)c12	inconclusive: 1.61%	
Cc1ccc(S(=O)(=O)N(CC(=O)N2CCc3ccccc3C2)c2ccc(Cl)c(Cl)c2)cc1		inconclusive: 29.1 µM [rising, partial curve, poor fit]
CSCCC(NC(=O)COc1ccccc1)C(=O)N1CCOCC1 (centres undefined)	inconclusive: 2.57%	
Cc1ccc(C)c(NS(=O)(=O)c2ccc(OCC(=O)NCC3CCCO3)cc2)c1 (centres undefined)	inactive: -0.804%	
O=C(CNC(=O)c1cccc(F)c1)OCc1cc(=O)n2cc(Br)ccc2n1	inconclusive: 6.74%	
COCC(C)n1c(C)cc(C(=O)COc2ccc(N(C)S(=O)(=O)c3ccc(NC(C)=O)cc3)cc2)c1C (centres undefined)	inconclusive: 1.2%	
Cc1cccc(CS(=O)(=O)Cc2ccc(C(=O)NCc3ccc(F)cc3)o2)c1	inconclusive: -0.839%	
Cn1cc(/C=N\NC(=O)C2COc3ccccc3O2)c2ccccc21 (centres undefined)	inconclusive: 5.14%	
CCCCOc1ccc(CSC(=N)N)cc1Cl		inconclusive: 25.1 µM [falling, partial curve]
COc1cccc(NC(=O)c2cnc(SCC(=O)N3CCCc4ccccc43)n(C)c2=O)c1		inconclusive: 20 µM [falling, partial curve, poor fit]
COC(=O)c1ccccc1NC(=O)c1cc(OC)cc(OC)c1		inconclusive: 23.1 µM [falling, partial curve, poor fit]
Cc1cccc(OCC(=O)N2CCC3(CC2)CC(=O)c2ccccc2O3)c1		inconclusive: 29.1 µM [falling, partial curve, poor fit]
CCOc1ccc(C(=O)SC2=NCCS2)cc1	inconclusive: 14.8%	
O=C(CNC(=O)c1cccs1)N=Nc1c(O)[nH]c2ccc([N+](=O)[O-])cc12		inconclusive: 15.8 µM [falling, partial curve, poor fit]
Cn1cccc1CC(=O)NNC(=S)NC(=O)c1ccc(F)cc1		inconclusive: 35.5 µM [falling, single point]
COc1cccc(NC(=O)CSc2nnc(-c3ccc(C)cc3)o2)c1		inconclusive: 4.61 µM [falling, partial curve]
O=C(NCC(=O)N(c1ccccc1F)C(C(=O)NCC1CCCO1)c1ccccc1)c1ccco1 (centres undefined)	inconclusive: 14.3%	
